Data reported in the supplement of paper PMC10849652.
The other results are listed elsewhere or left out.

Amino acid sequences for entries named in this document (tags omitted). A change or cut given only in a name is not applied to a line headed by its entry.
UniProt O15198: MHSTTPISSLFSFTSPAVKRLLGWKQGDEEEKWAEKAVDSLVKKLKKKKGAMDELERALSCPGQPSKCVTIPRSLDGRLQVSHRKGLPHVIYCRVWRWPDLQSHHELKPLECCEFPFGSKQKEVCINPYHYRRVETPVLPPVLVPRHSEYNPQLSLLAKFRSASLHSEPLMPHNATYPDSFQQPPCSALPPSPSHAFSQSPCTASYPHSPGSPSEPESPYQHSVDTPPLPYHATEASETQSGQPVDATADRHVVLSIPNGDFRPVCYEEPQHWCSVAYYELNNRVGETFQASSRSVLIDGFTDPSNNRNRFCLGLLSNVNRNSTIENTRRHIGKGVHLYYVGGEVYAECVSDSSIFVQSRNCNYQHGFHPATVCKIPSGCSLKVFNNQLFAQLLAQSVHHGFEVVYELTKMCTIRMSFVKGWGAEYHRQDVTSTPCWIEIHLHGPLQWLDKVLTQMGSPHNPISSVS
UniProt Q9H1U9: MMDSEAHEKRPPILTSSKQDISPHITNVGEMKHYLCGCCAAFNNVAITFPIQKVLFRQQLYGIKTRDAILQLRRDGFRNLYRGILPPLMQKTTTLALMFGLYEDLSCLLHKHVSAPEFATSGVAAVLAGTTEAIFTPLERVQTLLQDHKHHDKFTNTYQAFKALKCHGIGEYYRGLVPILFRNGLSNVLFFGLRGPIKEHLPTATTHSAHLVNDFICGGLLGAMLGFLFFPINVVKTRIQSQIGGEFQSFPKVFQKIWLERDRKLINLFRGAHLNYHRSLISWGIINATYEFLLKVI
UniProt Q9H2G2: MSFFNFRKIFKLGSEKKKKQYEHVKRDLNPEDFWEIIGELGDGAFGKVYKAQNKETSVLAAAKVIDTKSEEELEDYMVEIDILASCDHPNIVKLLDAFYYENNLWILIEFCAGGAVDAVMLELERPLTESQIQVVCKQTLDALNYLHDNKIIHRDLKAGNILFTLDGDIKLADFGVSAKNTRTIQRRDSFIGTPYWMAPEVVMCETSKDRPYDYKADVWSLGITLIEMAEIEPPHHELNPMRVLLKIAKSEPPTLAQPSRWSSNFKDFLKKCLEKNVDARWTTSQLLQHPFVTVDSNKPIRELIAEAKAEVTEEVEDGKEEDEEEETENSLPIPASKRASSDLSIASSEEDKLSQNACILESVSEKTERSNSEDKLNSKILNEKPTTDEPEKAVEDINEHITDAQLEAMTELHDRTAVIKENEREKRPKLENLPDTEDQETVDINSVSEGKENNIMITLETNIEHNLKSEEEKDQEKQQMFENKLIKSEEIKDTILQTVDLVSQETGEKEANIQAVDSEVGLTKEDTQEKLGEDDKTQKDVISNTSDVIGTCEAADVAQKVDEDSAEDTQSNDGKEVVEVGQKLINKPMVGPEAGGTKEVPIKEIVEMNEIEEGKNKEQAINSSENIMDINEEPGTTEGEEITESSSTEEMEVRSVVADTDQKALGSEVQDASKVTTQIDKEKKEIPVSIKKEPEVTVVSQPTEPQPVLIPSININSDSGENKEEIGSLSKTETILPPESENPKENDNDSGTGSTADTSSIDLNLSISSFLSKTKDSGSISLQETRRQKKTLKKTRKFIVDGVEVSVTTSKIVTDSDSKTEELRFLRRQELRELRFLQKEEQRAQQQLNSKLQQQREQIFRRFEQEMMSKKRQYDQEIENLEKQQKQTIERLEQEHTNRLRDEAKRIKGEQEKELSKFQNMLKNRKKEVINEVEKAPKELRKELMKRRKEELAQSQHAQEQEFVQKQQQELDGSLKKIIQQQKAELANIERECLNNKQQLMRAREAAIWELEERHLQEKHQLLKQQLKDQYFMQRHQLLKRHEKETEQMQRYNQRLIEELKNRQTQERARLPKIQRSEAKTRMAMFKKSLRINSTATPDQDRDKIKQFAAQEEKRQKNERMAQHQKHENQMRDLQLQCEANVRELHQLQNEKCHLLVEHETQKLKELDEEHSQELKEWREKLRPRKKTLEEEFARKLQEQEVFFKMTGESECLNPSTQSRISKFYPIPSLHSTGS
UniProt Q96CW6: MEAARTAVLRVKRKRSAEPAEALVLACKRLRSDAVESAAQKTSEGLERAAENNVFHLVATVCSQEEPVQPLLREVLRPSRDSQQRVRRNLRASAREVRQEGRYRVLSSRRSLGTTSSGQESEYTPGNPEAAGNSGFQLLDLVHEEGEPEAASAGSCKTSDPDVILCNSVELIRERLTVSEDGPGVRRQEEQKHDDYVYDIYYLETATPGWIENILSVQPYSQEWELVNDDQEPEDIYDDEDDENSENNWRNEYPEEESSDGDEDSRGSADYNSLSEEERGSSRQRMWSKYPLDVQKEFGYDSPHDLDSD
UniProt O95391: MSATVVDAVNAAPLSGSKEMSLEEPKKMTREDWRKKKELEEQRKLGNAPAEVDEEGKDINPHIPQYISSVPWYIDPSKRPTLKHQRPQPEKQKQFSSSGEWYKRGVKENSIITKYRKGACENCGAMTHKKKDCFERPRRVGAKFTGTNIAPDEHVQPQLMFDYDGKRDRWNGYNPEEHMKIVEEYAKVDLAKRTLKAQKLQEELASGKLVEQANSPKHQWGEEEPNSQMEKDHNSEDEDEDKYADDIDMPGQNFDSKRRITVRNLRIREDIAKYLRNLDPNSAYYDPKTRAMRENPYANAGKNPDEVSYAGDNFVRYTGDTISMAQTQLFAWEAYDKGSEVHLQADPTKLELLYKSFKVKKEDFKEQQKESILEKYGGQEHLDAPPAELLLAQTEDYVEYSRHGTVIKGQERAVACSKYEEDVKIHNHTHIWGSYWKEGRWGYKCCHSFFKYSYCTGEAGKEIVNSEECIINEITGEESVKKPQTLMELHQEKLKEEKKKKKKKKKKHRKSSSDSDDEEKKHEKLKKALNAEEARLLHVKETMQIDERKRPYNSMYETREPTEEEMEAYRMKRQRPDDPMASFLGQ
UniProt Q9H1N7: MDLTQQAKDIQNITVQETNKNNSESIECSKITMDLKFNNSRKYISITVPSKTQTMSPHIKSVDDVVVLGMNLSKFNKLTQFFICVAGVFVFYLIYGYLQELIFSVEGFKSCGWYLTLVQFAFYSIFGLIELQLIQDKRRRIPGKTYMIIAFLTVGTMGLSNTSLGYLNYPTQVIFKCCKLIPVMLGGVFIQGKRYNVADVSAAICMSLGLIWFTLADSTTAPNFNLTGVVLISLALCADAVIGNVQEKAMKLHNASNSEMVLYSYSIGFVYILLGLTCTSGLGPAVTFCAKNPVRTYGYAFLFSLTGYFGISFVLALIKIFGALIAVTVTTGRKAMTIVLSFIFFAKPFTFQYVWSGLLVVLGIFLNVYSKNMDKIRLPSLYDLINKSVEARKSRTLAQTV
UniProt Q9BWU0: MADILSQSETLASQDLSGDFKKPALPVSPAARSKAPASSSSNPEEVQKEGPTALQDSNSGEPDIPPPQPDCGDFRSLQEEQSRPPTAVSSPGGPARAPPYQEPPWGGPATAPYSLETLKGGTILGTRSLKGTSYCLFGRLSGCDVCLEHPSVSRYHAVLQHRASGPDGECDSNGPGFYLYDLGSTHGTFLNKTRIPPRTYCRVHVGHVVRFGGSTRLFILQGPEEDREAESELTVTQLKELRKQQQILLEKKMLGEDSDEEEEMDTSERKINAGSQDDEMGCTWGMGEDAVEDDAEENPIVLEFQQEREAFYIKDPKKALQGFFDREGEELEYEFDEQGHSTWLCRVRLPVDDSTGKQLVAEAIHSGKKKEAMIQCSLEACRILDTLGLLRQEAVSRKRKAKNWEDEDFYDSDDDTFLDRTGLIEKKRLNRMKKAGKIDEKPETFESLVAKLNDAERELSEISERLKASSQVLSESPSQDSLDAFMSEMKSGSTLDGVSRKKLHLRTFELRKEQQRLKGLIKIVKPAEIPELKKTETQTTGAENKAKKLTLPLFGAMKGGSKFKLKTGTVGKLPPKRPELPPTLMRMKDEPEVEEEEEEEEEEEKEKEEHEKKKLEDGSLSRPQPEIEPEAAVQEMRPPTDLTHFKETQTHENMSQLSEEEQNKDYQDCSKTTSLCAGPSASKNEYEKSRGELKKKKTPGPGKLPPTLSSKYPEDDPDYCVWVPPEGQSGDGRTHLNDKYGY
UniProt Q9UGH3: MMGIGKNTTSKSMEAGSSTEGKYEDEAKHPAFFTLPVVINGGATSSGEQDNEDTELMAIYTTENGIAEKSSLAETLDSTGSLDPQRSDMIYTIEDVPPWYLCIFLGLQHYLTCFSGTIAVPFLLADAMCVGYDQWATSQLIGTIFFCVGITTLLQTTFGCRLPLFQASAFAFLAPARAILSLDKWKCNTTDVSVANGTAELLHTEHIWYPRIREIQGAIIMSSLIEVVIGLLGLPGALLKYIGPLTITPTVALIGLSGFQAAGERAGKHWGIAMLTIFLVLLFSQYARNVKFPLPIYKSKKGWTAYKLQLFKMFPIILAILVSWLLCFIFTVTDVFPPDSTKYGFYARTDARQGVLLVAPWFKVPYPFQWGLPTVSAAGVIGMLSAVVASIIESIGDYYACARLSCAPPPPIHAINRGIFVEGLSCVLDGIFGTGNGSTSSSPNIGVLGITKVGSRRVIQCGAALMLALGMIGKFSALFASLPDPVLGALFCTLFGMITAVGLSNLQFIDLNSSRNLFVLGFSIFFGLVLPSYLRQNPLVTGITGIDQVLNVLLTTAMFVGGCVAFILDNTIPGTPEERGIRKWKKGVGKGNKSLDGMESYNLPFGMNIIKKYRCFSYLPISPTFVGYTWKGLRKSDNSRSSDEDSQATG
UniProt Q9H2H9: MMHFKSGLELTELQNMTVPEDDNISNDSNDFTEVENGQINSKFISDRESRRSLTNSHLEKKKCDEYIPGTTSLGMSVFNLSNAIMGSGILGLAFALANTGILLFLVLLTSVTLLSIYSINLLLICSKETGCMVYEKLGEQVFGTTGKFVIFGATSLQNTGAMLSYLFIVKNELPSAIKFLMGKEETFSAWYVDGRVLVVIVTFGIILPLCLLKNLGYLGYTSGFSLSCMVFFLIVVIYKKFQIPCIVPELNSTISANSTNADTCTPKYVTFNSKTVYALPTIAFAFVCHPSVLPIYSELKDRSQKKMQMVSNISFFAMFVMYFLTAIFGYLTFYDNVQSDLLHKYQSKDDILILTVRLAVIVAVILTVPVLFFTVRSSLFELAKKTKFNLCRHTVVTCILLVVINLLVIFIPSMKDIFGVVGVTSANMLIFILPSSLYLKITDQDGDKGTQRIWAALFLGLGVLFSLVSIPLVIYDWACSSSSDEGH
UniProt Q0VAQ4: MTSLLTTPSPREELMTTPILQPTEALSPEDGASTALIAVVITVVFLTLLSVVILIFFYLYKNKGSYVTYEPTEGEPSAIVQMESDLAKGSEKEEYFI
UniProt Q969S0: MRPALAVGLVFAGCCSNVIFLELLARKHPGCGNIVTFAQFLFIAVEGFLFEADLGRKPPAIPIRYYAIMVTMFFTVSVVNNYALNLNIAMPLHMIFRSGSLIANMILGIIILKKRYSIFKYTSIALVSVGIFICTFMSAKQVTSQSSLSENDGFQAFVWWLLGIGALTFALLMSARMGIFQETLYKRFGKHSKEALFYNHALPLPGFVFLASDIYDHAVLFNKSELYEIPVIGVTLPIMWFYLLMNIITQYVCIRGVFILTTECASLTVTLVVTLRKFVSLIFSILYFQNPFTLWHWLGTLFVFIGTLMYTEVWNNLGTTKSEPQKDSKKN
UniProt Q9NQQ7: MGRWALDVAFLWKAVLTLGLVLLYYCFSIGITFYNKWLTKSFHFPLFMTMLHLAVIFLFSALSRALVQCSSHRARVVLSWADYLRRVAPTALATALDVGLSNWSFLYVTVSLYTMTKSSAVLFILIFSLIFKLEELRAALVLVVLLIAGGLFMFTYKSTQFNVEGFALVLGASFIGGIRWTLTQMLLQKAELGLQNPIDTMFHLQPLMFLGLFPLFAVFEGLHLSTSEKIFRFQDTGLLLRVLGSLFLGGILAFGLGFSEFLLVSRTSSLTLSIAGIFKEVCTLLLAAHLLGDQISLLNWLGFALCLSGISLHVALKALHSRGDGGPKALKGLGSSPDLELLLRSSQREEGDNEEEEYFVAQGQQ
UniProt Q6NXT4: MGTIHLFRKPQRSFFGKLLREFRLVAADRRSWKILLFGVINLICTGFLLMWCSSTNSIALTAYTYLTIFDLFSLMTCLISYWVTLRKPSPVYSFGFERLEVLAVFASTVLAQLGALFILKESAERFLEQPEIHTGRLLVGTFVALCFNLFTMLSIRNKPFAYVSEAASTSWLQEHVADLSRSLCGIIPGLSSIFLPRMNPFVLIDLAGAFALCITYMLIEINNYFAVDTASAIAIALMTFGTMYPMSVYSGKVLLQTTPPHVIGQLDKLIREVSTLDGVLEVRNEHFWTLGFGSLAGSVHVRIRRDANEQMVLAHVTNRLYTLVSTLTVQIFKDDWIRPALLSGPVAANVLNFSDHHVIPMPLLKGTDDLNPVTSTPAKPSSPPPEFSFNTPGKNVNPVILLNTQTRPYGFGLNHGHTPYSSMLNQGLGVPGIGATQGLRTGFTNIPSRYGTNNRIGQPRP

How the values were obtained:
Test in all cases: log2 fold change, soluble protein after heating vs DMSO (PISA); higher = thermal stabilisation; K562 lysate, 10 uM; active = over 0.2 and 3.5 SD of the protein, either way, in both replicates (recomputed)
alvocidib = compound: CN1CC[C@H](c2c(O)cc(O)c3c(=O)cc(-c4ccccc4Cl)oc23)[C@H](O)C1 [alvocidib]
Procedure, shortened: (§1)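 Log-two fold change in thermal stability relative to solvent controls is reported from duplicates. For each sample, crude K562 extract from dounce-homogenised pellets in PBS pH 7.4 with 1 mM MgCl2, at 1 mg/mL protein, was treated with 10 μM compound for 30 min. Aliquots heated for 3 min across 48°C-58°C were pooled, brought to 0.5% NP-40 at 4°C and cleared at 21,000xg for 90 min. The supernatant was quantified by TMTpro 16plex LC-MS/MS with channel sums equalised.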

Tubastatin A = compound: CN1CCc2c(c3ccccc3n2Cc2ccc(C(=O)NO)cc2)C1 [Tubastatin A]
Procedure, shortened: as §1

[1] = compound: CNC(=O)C1=CC=CC=C1NC2=NC(=NC=C2Cl)NC3=C(C=C(C=C3)N4CCOCC4)OC
Procedure, shortened: as §1

defactinib = compound: CNC(=O)c1ccc(Nc2ncc(C(F)(F)F)c(NCc3nccnc3N(C)S(C)(=O)=O)n2)cc1 [defactinib]
Procedure, shortened: as §1

[2] = compound: CNc1nc(-c2ccc3c(N)n[nH]c3c2)cc(N2C[C@@H](C(=O)NC3CCCCC3)CC[C@H]2C)n1
Procedure, shortened: as §1

encorafenib = compound: COC(=O)N[C@@H](C)CNc1nccc(-c2cn(C(C)C)nc2-c2cc(Cl)cc(NS(C)(=O)=O)c2F)n1 [encorafenib]
Procedure, shortened: as §1

[3] = compound: COC(=O)[C@H](CCSC)NC(=O)C1=C(C=C(C=C1)NC[C@H](CS)N)C2=CC=CC=C2
Procedure, shortened: as §1

alisertib = compound: COc1cc(Nc2ncc3c(n2)-c2ccc(Cl)cc2C(c2c(F)cccc2OC)=NC3)ccc1C(=O)O [alisertib]
Procedure, shortened: as §1

[4] = compound: COc1cc2nc(-c3cc(F)ccc3O)nc(N[C@@H]3CNC[C@H]3C(C)(C)O)c2cc1OC
Procedure, shortened: as §1

gefitinib = compound: COc1cc2ncnc(Nc3ccc(F)c(Cl)c3)c2cc1OCCCN1CCOCC1 [gefitinib]
Procedure, shortened: as §1

Target | log2 fold change (alvocidib) | log2 fold change (Tubastatin A) | log2 fold change [1] | log2 fold change (defactinib) | log2 fold change [2] | log2 fold change (encorafenib) | log2 fold change [3] | log2 fold change (alisertib) | log2 fold change [4] | log2 fold change (gefitinib)
SLC37A4 isoform 2 (UniProt O43826) | inactive: -0.126 | inactive: -0.051 | inactive: -0.112 | inactive: -0.015 | inactive: 0.02 | inactive: 0.045 | inactive: -0.047 | inactive: 0.004 | inactive: 0.039 | inactive: -0.026
SMAD9 (UniProt O15198) | inactive: 0.008 | inactive: -0.075 | inactive: 0.089 | inactive: -0.081 | inactive: 0.011 | inactive: 0.014 | inactive: -0.014 | inactive: 0.052 | inactive: 0.047 | inactive: -0.028
SLC3A2 isoform 3 (UniProt P08195) | inactive: 0.001 | inactive: 0.067 | inactive: 0.008 | inactive: -0.008 | inactive: 0.039 | inactive: -0.011 | inactive: -0.03 | inactive: -0.028 | inactive: 0.019 | inactive: -0.028
SLC25A51 (UniProt Q9H1U9) | inactive: 0.036 | inactive: 0.033 | inactive: 0 | inactive: 0.023 | inactive: -0.017 | inactive: 0.024 | inactive: -0.041 | inactive: 0.06 | inactive: -0.003 | inactive: 0.004
SLK isoform 2 (UniProt Q9H2G2) | inactive: 0.046 | inactive: -0.005 | inactive: 0.103 | inactive: 0.044 | inactive: 0.019 | inactive: -0.046 | inactive: -0.009 | inactive: -0.01 | inactive: -0.011 | inactive: 0.05
SLC29A1 isoform 2 (UniProt Q99808) | inactive: -0.087 | inactive: -0.007 | inactive: 0.023 | inactive: 0.003 | inactive: -0.159 | inactive: 0.029 | inactive: -0.092 | inactive: -0.037 | inactive: 0.013 | inactive: 0.014
SLC7A2 isoform 3 (UniProt P52569) | inactive: -0.136 | inactive: 0.051 | inactive: -0.013 | inactive: -0.072 | inactive: 0.268 | inactive: 0.028 | inactive: -0.109 | inactive: 0.01 | inactive: 0.031 | inactive: -0.015
SLC27A2 (UniProt O14975) | inactive: 0.005 | inactive: -0.009 | inactive: 0.216 | inactive: -0.044 | inactive: 0.172 | inactive: 0.063 | inactive: 0.019 | inactive: 0.002 | inactive: 0.017 | inactive: -0.089
SLC7A6OS (UniProt Q96CW6) | inactive: -0.053 | inactive: 0.063 | inactive: 0.042 | inactive: 0.046 | inactive: -0.066 | inactive: -0.028 | inactive: -0.036 | inactive: 0.006 | inactive: 0.031 | inactive: -0.151
SLC25A13 isoform 2 (UniProt Q9UJS0) | inactive: 0.009 | inactive: 0.041 | inactive: -0.014 | inactive: 0.015 | inactive: 0.013 | inactive: 0.012 | inactive: 0.024 | inactive: 0.005 | inactive: 0.012 | inactive: 0.01
SLU7 (UniProt O95391) | inactive: -0.086 | inactive: -0.042 | inactive: -0.065 | inactive: 0.016 | inactive: -0.006 | inactive: 0.071 | inactive: 0.021 | inactive: 0.002 | – | inactive: 0.026
SLC25A19 (UniProt Q9HC21) | inactive: 0.008 | inactive: 0.055 | inactive: 0.016 | inactive: -0.036 | inactive: 0.014 | inactive: 0.038 | inactive: 0.051 | inactive: -0.026 | inactive: -0.047 | inactive: -0.037
SLC39A7 (UniProt Q92504) | inactive: 0.01 | inactive: -0.009 | inactive: -0.053 | inactive: -0.018 | – | inactive: -0.004 | inactive: -0.143 | inactive: -0.034 | inactive: 0.002 | inactive: 0.028
SLIRP (UniProt Q9GZT3) | inactive: -0.028 | inactive: 0.031 | inactive: 0.022 | inactive: 0.023 | inactive: 0.052 | inactive: -0.001 | inactive: -0.127 | inactive: 0.012 | inactive: -0.025 | inactive: -0.053
SMAD2 (UniProt Q15796) | inactive: -0.058 | inactive: 0.009 | inactive: 0.167 | inactive: 0.01 | inactive: 0.038 | inactive: -0.01 | inactive: 0.03 | inactive: -0.069 | inactive: 0.006 | inactive: 0.016
SLC35B3 (UniProt Q9H1N7) | inactive: -0.043 | inactive: 0.023 | inactive: 0.024 | inactive: 0.068 | inactive: 0.073 | – | – | inactive: 0.075 | inactive: 0.073 | inactive: 0.078

Target | log2 fold change (alvocidib) | log2 fold change (Tubastatin A) | log2 fold change [1] | log2 fold change (defactinib) | log2 fold change [2] | log2 fold change (encorafenib) | log2 fold change [3] | log2 fold change (alisertib) | log2 fold change [4] | log2 fold change (gefitinib)
SLC45A4 isoform 3 (UniProt Q5BKX6) | inactive: 0.034 | inactive: 0.044 | inactive: -0.059 | inactive: -0.016 | – | inactive: 0.142 | inactive: -0.081 | inactive: 0.183 | inactive: 0.004 | inactive: -0.181
SLC35A3 isoform 2 (UniProt Q9Y2D2) | inactive: -0.406 | inactive: -0.079 | inactive: 0.016 | inactive: 0.069 | – | inactive: 0.067 | inactive: -0.019 | inactive: 0.069 | inactive: -0.019 | inactive: 0.198
SLC25A17 (UniProt O43808) | inactive: -0.216 | inactive: 0.094 | inactive: 0.007 | inactive: -0.036 | inactive: 0.006 | inactive: 0.004 | inactive: -0.009 | inactive: 0.019 | inactive: -0.011 | inactive: 0.026
SLC35F2 (UniProt Q8IXU6) | inactive: -0.133 | inactive: 0.014 | inactive: -0.065 | inactive: 0.101 | inactive: -0.069 | inactive: 0.024 | inactive: -0.084 | inactive: -0.021 | inactive: 0.027 | inactive: -0.026
SLC2A4 (UniProt P14672) | inactive: -0.035 | inactive: 0.043 | inactive: 0.014 | inactive: -0.134 | inactive: 0.096 | inactive: 0.034 | inactive: -0.028 | – | inactive: -0.017 | –
SLC25A11 (UniProt Q02978) | inactive: -0.061 | inactive: 0.003 | inactive: -0.03 | inactive: 0.018 | inactive: 0.042 | inactive: 0.038 | inactive: 0.032 | inactive: -0.005 | inactive: 0.007 | inactive: 0
SLC35E1 (UniProt Q96K37) | inactive: -0.015 | inactive: 0.012 | inactive: 0.011 | inactive: 0.024 | inactive: 0.038 | inactive: 0.015 | inactive: 0.031 | – | inactive: 0 | –
SLC4A1AP (UniProt Q9BWU0) | inactive: -0.019 | inactive: 0.001 | inactive: 0.005 | inactive: -0.022 | inactive: 0.006 | inactive: 0.002 | inactive: -0.025 | inactive: -0.007 | inactive: -0.008 | inactive: 0.008
SLC23A2 (UniProt Q9UGH3) | inactive: -0.063 | inactive: -0.038 | inactive: -0.097 | – | inactive: 0.03 | inactive: -0.035 | inactive: 0.247 | – | inactive: -0.139 | –
SLC39A8 (UniProt Q9C0K1) | inactive: -0.086 | inactive: -0.002 | inactive: 0.025 | inactive: 0.013 | – | inactive: 0.19 | inactive: 0.018 | inactive: -0.076 | inactive: -0.095 | inactive: -0.065
SLC38A1 (UniProt Q9H2H9) | inactive: -0.111 | inactive: 0.022 | inactive: -0.026 | inactive: -0.016 | inactive: -0.054 | inactive: 0.019 | inactive: -0.045 | inactive: -0.021 | inactive: 0.011 | inactive: 0.073
SMAGP (UniProt Q0VAQ4) | inactive: 0.031 | inactive: 0.147 | inactive: 0.091 | – | inactive: 0.009 | inactive: 0.005 | inactive: 0.152 | inactive: -0.221 | inactive: -0.323 | inactive: -0.236
SLC35B4 (UniProt Q969S0) | inactive: -0.08 | inactive: 0.032 | inactive: -0.043 | inactive: 0.075 | – | inactive: 0.09 | inactive: -0.223 | inactive: -0.037 | inactive: -0.145 | inactive: -0.022
SLC35C2 isoform 3 (UniProt Q9NQQ7) | inactive: 0.048 | inactive: 0.025 | inactive: -0.018 | – | inactive: 0.108 | inactive: 0.066 | inactive: -0.028 | inactive: -0.13 | inactive: 0.098 | inactive: 0.15
SLC30A6 isoform 2 (UniProt Q6NXT4) | inactive: 0.023 | inactive: 0.126 | inactive: 0.016 | inactive: 0.011 | – | inactive: 0.003 | active: -0.322 | inactive: 0.003 | inactive: -0.18 | inactive: -0.005

Record cards (already shown). Order of values: log2 fold change (alvocidib)	log2 fold change (Tubastatin A)	log2 fold change [1]	log2 fold change (defactinib)	log2 fold change [2]	log2 fold change (encorafenib)	log2 fold change [3]	log2 fold change (alisertib)	log2 fold change [4]	log2 fold change (gefitinib)
SLC2A4 (UniProt P14672) as listed: inactive: -0.035	inactive: 0.043	inactive: 0.014	inactive: -0.134	inactive: 0.096	inactive: 0.034	inactive: -0.028	–	inactive: -0.017	–
SLC7A2 isoform 3 (UniProt P52569) as listed: inactive: -0.136	inactive: 0.051	inactive: -0.013	inactive: -0.072	inactive: 0.268	inactive: 0.028	inactive: -0.109	inactive: 0.01	inactive: 0.031	inactive: -0.015
